Source: PubChem BioAssay AID2685 (National Center for Advancing Translational Sciences (NCATS), 2010)
The list shows a part of the results. These are further read-outs of the screen, such as a control signal, another cell line or another target. No call is given for them. Most of these compounds were active or inconclusive in the main read-out, so they are no random draw. Potencies come from curve fits of mixed quality, noted in brackets.

Assay: qHTS Assay for Lipid Storage Modulators in Drosophila S3 Cells;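 as to cell number change: cells counted by Cell Tracker Red CMTPX staining in the red channel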
Conditions: BODIPY lipid droplet fluorescence, 18-24 h; for cell number change: measured here: cell count max response, cells fed with added oleic acid
Procedure, shortened: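 Drosophila S3 cells got compounds at several concentrations plus oleic acid (400 uM solution). Laser-scanning cytometry with 488 nm excitation read lipid droplets at 500-530 nm and cells at 575-640 nm. Percent activity was relative to 20 uM Triacsin C.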

[1] = measured here: lipid fluorescence (Fed channel) AC50, cells fed with added oleic acid
[2] = measured here: cell number channel AC50, cells fed with added oleic acid

Compound | cell number change | AC50 [1] | AC50 [2]
O=C(NCCc1ccc(C(F)(F)F)cc1)c1ccc(Cl)nc1 | -11.1% | 0.58 µM [falling, single point] | –
COc1ccc(C(=O)Nc2ccc(N3CCC(C)CC3)cc2)cc1Br | 18% | – | –
COC(=O)CNC(c1ccccc1Cl)c1cc(Br)ccc1NC(=O)CCN1CCOCC1 (stereo not given) | 71.3% | – | 0.411 µM [rising, full curve, poor fit]
CC1CC(C)CN(C(=O)/C(=C\c2ccccc2)c2ccccc2)C1 (stereo not given) | -28.1% | – | –
O=C(NCc1ccccc1)C(c1cccnc1)N(C(=O)c1csnn1)c1ccccc1 (stereo not given) | 9.24% | 20.6 µM [rising, single point] | –
c1coc(CNc2ncnc3ccccc23)c1 | -19.6% | 5.8 µM [falling, partial curve] | 0.13 µM [falling, full curve, poor fit]
Cc1ccc(S(=O)(=O)/N=C(\N)c2ccc(F)cc2)cc1 | 113% | – | 29.1 µM [rising, single point]
CCOC(=O)CN1C(=O)C(O)=C(C(C)=O)C1c1ccc(F)cc1 (stereo not given) | -12.8% | 0.092 µM [falling, full curve, poor fit] | –
Oc1c(C(c2ccccn2)N2CCOCC2)ccc2cccnc12 (stereo not given) | -23.3% | 16.4 µM [falling, single point] | –
CCN(CC)S(=O)(=O)c1ccc(N/N=C(\C)c2ccncc2)c([N+](=O)[O-])c1 | -29.5% | – | –
O=C(Oc1ccc(Br)cc1C(=S)N1CCOCC1)c1ccccc1 | -19% | 29.1 µM [falling, partial curve] | –
CCCCc1ccc(N/C(N)=N/c2nc(C)cc(C)n2)cc1 | -61.6% | 11.6 µM [falling, partial curve] | 29.1 µM [falling, single point]
C/C(N)=C(/C#N)C(=O)COC(=O)c1ccccc1O | 50% | – | 5.8 µM [rising, full curve]
CC(c1nnc(SCC(=O)c2c(N)n(C)c(=O)n(C)c2=O)n1-c1ccc(Cl)cc1)N(C)C (stereo not given) | -7.77% | 1.46 µM [rising, partial curve, poor fit] | –
Cc1nnc(SCC(=O)c2cc(C)n(C3CC3)c2C)s1 | -9.43% | 6.51 µM [falling, single point] | –
O=C1CC(N2CCOCC2)C(=O)N1c1cc(Cl)cc(Cl)c1 (stereo not given) | 0.78% | – | 0.92 µM [falling, full curve, poor fit]
N#Cc1cccc(C(c2nnnn2Cc2ccccc2)N2CCCC2)c1 (stereo not given) | -1.62% | – | –
CC(C)(C)OC(=O)N1CCC(NC(=O)c2[nH]cnc2C(=O)Nc2ccc(Cl)cc2)CC1 | -21% | 0.00461 µM [rising, full curve, poor fit] | –
O=C(Cn1c(=O)c2cccn2c2cccnc21)NCCCN1CCN(c2ccc(F)cc2)CC1 | -0.295% | – | –
CC(C)OCCCn1c(=NC(=O)c2ccncc2)c(C#N)cc2c(=O)n3ccccc3nc21 | -17% | 0.651 µM [falling, full curve, poor fit] | –
COc1ccc(NC(=S)NC2CCCCCC2)c(OC)c1 | -3.43% | – | –

Compound | cell number change | AC50 [1] | AC50 [2]
COc1ccc(S(=O)(=O)Nc2ccccc2C(=O)OC2CCCN(C)C2)cc1OC (stereo not given) | 35.7% | 7.31 µM [rising, partial curve] | 2.59 µM [rising, partial curve]
COc1ccc(/C=C/C(=O)NC2CCN(Cc3ccccc3)CC2)cc1OC | -0.435% | 29.1 µM [rising, single point] | –
COc1ccc(Nc2nc3ccc(OC)cc3s2)cc1 | 40.5% | 0.00461 µM [rising, full curve, poor fit] | 1.46 µM [rising, partial curve]
COc1cc(/C=N/NC(=O)CC2(C)OCCCO2)ccc1OCc1ccc(Cl)cc1Cl | 6.06% | 0.00366 µM [rising, full curve, poor fit] | –
C/C(=N\NC(=O)c1ccc(OC2CCCC2)cc1)c1ccc(O)cc1 | 15.9% | 6.51 µM [falling, single point] | –
Cc1ccc(/C=C/C(=O)OCC(=O)NC(=O)NCc2ccccc2)cc1 | -33.8% | 0.651 µM [falling, full curve] | 29.1 µM [falling, single point]
Cn1cccc1Cc1nnc(SCC(=O)NCCc2ccccc2)n1C | -16.7% | 18.4 µM [falling, single point] | –
O=C(C1CCCN(S(=O)(=O)c2cccc3nonc23)C1)N1CCC(Cc2ccccc2)CC1 (stereo not given) | 4.72% | 20.6 µM [falling, partial curve] | –
Cc1nc(-c2ccc(F)cc2)c(CC(=O)N2CCN(S(=O)(=O)c3ccc(F)cc3)CC2)s1 | -12.4% | 29.1 µM [rising, single point] | –
Cc1cc(SCC(N)=O)nc(SCC(=O)c2ccccc2)n1 | – | – | 6.51 µM [rising, partial curve, poor fit]
Cc1noc(C)c1S(=O)(=O)N(CC(=O)NC(C)c1ccccc1)c1ccc(C(C)C)cc1 (stereo not given) | 31.4% | 6.51 µM [rising, single point] | 25.9 µM [rising, single point]
N=C(N)SCc1cn(-c2ccccc2)nc1-c1ccc(Br)cc1 | -127% | – | –
O=C(CNC(=O)c1ccco1)NCC(=O)OCc1c(F)cccc1Cl | -5.45% | 29.1 µM [rising, single point] | –
COc1cc(C)nc(N2CCCC(C(=O)Nc3cccc(Cl)c3C)C2)n1 (stereo not given) | -4.36% | – | –
O=C(Nc1ccccc1N1CCN(c2ccccc2)CC1)c1cccc(F)c1 | 28.3% | 18.4 µM [rising, partial curve] | –
CCOc1ccc(NC(=O)CSc2nnc(NC(=O)C3CC3)s2)cc1 | 19.6% | – | 0.731 µM [rising, full curve, poor fit]
CCCCCc1cc(=O)oc2c(C(CCN3CCCCC3)c3ccc(OC)cc3)c(OC)cc(OC)c12 (stereo not given) | -38.5% | 20.6 µM [falling, single point] | 25.9 µM [falling, single point]
Cc1nc(SCC(N)=O)c(C#N)c(C)c1C | 16.7% | 0.58 µM [rising, full curve] | –
CCNS(=O)(=O)c1cc(OC)ccc1OC | -31.8% | 29.1 µM [falling, single point] | 6.51 µM [falling, partial curve, poor fit]
O=C(CSc1nc(=O)n(CCCN2CCOCC2)c2c1CCC2)Nc1ccc(F)cc1 | – | – | 0.461 µM [falling, single point]
Cc1cc(NC(=O)c2cccc(S(=O)(=O)N3CC(c4ccccc4)CC3=O)c2)no1 (stereo not given) | – | – | 1.16 µM [rising, partial curve]

12 structures out of the list, ordered by heavy-atom count, largest number first.
Compound | cell number change | AC50 [1] | AC50 [2]
CCCCCc1cc(=O)oc2c(C(CCN3CCCCC3)c3ccc(OC)cc3)c(OC)cc(OC)c12 (stereo not given) | -38.5% | 20.6 µM [falling, single point] | 25.9 µM [falling, single point]
O=C(C1CCCN(S(=O)(=O)c2cccc3nonc23)C1)N1CCC(Cc2ccccc2)CC1 (stereo not given) | 4.72% | 20.6 µM [falling, partial curve] | –
Cc1nc(-c2ccc(F)cc2)c(CC(=O)N2CCN(S(=O)(=O)c3ccc(F)cc3)CC2)s1 | -12.4% | 29.1 µM [rising, single point] | –
O=C(CSc1nc(=O)n(CCCN2CCOCC2)c2c1CCC2)Nc1ccc(F)cc1 | – | – | 0.461 µM [falling, single point]
COc1ccc(S(=O)(=O)Nc2ccccc2C(=O)OC2CCCN(C)C2)cc1OC (stereo not given) | 35.7% | 7.31 µM [rising, partial curve] | 2.59 µM [rising, partial curve]
COc1ccc(/C=C/C(=O)NC2CCN(Cc3ccccc3)CC2)cc1OC | -0.435% | 29.1 µM [rising, single point] | –
Cc1ccc(/C=C/C(=O)OCC(=O)NC(=O)NCc2ccccc2)cc1 | -33.8% | 0.651 µM [falling, full curve] | 29.1 µM [falling, single point]
C/C(=N\NC(=O)c1ccc(OC2CCCC2)cc1)c1ccc(O)cc1 | 15.9% | 6.51 µM [falling, single point] | –
N=C(N)SCc1cn(-c2ccccc2)nc1-c1ccc(Br)cc1 | -127% | – | –
Cc1cc(SCC(N)=O)nc(SCC(=O)c2ccccc2)n1 | – | – | 6.51 µM [rising, partial curve, poor fit]
COc1ccc(Nc2nc3ccc(OC)cc3s2)cc1 | 40.5% | 0.00461 µM [rising, full curve, poor fit] | 1.46 µM [rising, partial curve]
Cc1nc(SCC(N)=O)c(C#N)c(C)c1C | 16.7% | 0.58 µM [rising, full curve] | –

Next part:

Compound | cell number change | AC50 [1] | AC50 [2]
CSc1ccccc1C(=O)Nc1ccc2c(c1)OCO2 | 20.8% | 29.1 µM [rising, single point] | –
COC(=O)c1ccc(=O)n(CC(=O)c2ccc(Cl)cc2)c1 | – | 0.58 µM [rising, partial curve, poor fit] | –
CCOC(=O)C1(CC2CCCCO2)CCN(C(=O)Nc2ccc(SC)cc2)CC1 (stereo not given) | -13.7% | 18.4 µM [falling, partial curve, poor fit] | –
Cc1nn(Cc2ccc(F)cc2)c(C)c1NC(=O)CCCn1nc([N+](=O)[O-])cc1C | -30.3% | – | 8.2 µM [falling, partial curve]
O=C(Cn1nnc2ccccc2c1=O)Nc1cccc(S(=O)(=O)N2CCOCC2)c1 | – | 0.116 µM [rising, single point] | 0.13 µM [rising, single point]
COc1ccc(Cl)cc1N1C(=O)c2cccnc2C1=O | 4.93% | 6.51 µM [rising, single point] | –
Cc1ccc(NC(=O)c2c(C(F)(F)F)nn(C)c2SCc2ccc(Cl)cc2)cc1C | 0.0649% | – | –
O=C(CN1CCN(C(=O)C2CC2)CC1)Nc1cc(C(F)(F)F)cc(C(F)(F)F)c1 | -6.47% | 16.4 µM [falling, single point] | –
O=C(NC1(C(F)(F)F)NC(=O)N(CC2CCCCC2)C1=O)c1ccco1 (stereo not given) | 1.82% | – | –
COc1ccc(CCn2c(-c3ccc(F)cc3)nc3c(c(=O)c4ccccc4n3C)c2=O)cc1OC | -24.1% | 16.4 µM [falling, single point] | –
COC(=O)C(C)Sc1ccc2nnc(CCNS(=O)(=O)c3ccc(C)cc3)n2n1 (stereo not given) | 0.283% | – | 0.731 µM [falling, single point]
CC1CCc2c(sc3ncn(CCO)c(=O)c23)C1 (stereo not given) | 99% | 20.6 µM [rising, partial curve] | 16.4 µM [rising, partial curve]
COc1ccc(-c2ccc(SCC(=O)NCC3CCCO3)nn2)cc1OC (stereo not given) | 63.3% | – | –
CCN(CC)C(=O)c1[nH]cnc1C(=O)N[C@@H](Cc1ccccc1)C(=O)OC(C)(C)C | 24.3% | 0.82 µM [falling, single point] | –
Cc1ccc(NC(=O)C2CCN(C(=O)c3ccco3)CC2)cc1C | -6.41% | 5.17 µM [rising, single point] | –
CC(=O)Nc1ccc(N(C(=O)c2ccco2)C(C(=O)NC2CCCC2)c2ccncc2)cc1 (stereo not given) | 10% | 0.092 µM [falling, full curve, poor fit] | –
COC(=O)c1cc(NC(=O)c2ccccc2)c(=O)oc1C/C=N\OCc1ccc(Cl)cc1Cl | -4.23% | – | 0.146 µM [falling, full curve, poor fit]
COc1ccccc1CN(C)CC(=O)Nc1ccc(Cl)cc1F | 19.6% | – | –
Cc1cc(OCC(=O)Nc2c(C)n(C)n(-c3ccccc3)c2=O)ccc1[N+](=O)[O-] | 38.1% | – | 29.1 µM [rising, single point]
